Data published in article PMC4010494.
Results are given in words; binding and its absence hold for the method and conditions named.

Amino acid sequences for entries named in this document (tags omitted). Residues count along the entry.
UniProt Q00960, residues 1120-1482: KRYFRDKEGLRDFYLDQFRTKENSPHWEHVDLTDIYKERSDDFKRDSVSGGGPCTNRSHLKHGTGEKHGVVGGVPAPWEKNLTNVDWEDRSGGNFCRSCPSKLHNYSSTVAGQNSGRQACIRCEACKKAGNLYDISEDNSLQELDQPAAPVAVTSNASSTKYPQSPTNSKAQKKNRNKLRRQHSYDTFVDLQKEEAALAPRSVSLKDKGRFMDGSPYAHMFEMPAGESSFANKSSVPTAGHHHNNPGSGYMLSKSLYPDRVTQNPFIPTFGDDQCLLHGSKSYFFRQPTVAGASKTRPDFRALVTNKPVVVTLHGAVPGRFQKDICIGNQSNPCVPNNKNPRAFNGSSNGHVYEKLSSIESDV

Key:
[1] = molecular target: GST-GluN2B-C (GST fusion with the GluN2B cytoplasmic C-terminus, amino acids 1120-1482) (UniProt Q00960); assay: pull-down; 100 mg/ml lysozyme (6.8 mM) or BSA (1.5 mM) on GST-GluN2B-C, GST or empty glutathione beads, conditions as in Figure 1A; eluted, SDS-PAGE, silver stain; both purified
[2] = molecular target: GST-GluN2B-C (GST fusion with the GluN2B cytoplasmic C-terminus, amino acids 1120-1482) (UniProt Q00960); assay: microtiter plate binding assay (bound protein eluted, silver stain); 100 mg/ml lysozyme (6.8 mM), BSA (1.5 mM) or IgG on immuno-immobilized GST-GluN2B-C, GST or empty anti-GST wells, conditions as in Figure 1A; eluted, SDS-PAGE, silver stain; both purified

binding [1]: no binding (tested: 100 mg/ml (6.8 mM))
binding [2]: no binding (tested: 100 mg/ml (6.8 mM))
Substance: chicken lysozyme (from UniProt P00698 19-147) (enzyme)
